# Assay results published in publication PMC10163288.
# This is one part of the list.
# B1: il10ra_site1_sap_11_mot_HHH_b1_06348_000000162_0001_1_15_H_._HHH_b2_04994_af2_0001_0000100006_0000001_0_0001 (protein)
# chain: SSSSDERFELVEEAIKEAKELWEQGNEEEARKLIEEALERLEEEGDWVALAALEHLLKVLSSSSS
# B2: il10ra_site1_normal_mot_HHH_b2_07488_000000216_0001_1_17_H_._HHH_b1_07994_0001_0000200015_0000001_0 (protein)
# chain: SSSSTQEASELFVRIVELIEEGDEEEARRLIEELEEIAEKLNDPKARLSLRFIRALLEAYFSSSS
# B3: il10ra_site1_sap_17_mot_HHH_b1_00942_af2_000000135_0001_43_54_H_._HHH_b2_01999_af2_0001_0001000029_0000001_0_0001_af2pred_0001 (protein)
# chain: SSSSEELERSVRLLLELARLALELGDPETAKLSLREAEILARIMGDEELLEELEELLREIRSSSS
# B4: il10ra_site1_sap_24_mot_HHH_b1_02997_000000220_0001_39_52_H_._HHH_b1_00066_0001_0000400019_0000001_0_0001 (protein)
# chain: SSSSSEVEELYRLIRELNELVKRGDEEEFEKLYEEVHKLAEETNTAWARAVLRLLQRQVESSSSS
# B5: il10ra_site1_sap_21_mot_HHH_b1_08477_000000091_0001_40_57_H_._HHH_b2_00893_0001_0000600036_0000001_0_0001 (protein)
# chain: SSSSDAAHRVYELSRRAMEALAEGNPEEAREILEEAIELAEEGGNRVLLHVAEYALRQVEGSSSS
# B6: il10ra_site1_normal_mot_HHH_b1_05185_000000011_0001_22_39_H_._HHH_b2_02050_0001_0000900035_0000001_0_af2pred_0001 (protein)
# chain: SSSSSSSRRLRHLLKALKQILELNDEERAKLTARVALHLAEELGDEEVLEELQKILEELSSSSSS
# B7: il10ra_site1_normal_mot_HHH_b2_05686_000000041_0001_1_18_H_._HHH_b2_06530_0001_0000100014_0000001_0 (protein)
# chain: SSSDTARRSLEFAIKLAKELLELGDPERARLVVREAVKFARQLGDEELLKLAEELLEEIEKSSSS
# B8: il10ra_site1_sap_13_mot_2fa031a62b9321f410fa37cb4b35ac9e_0001_af2_000000160_0001_1_14_H_._HHH_b1_00672_0001_0000300018_0000001_0_0001 (protein)
# chain: SSSSTSEELEQLLHELWRAVKRNDKELARELTEQIEELAEELGNRAAKFLAKQALKAVELVSSSS
# B9: il10ra_site1_normal_mot_HHH_b2_00441_000000175_0001_1_18_H_._HHH_b1_00478_af2_0001_0000100001_0000001_0 (protein)
# chain: SSSSDEDERYAKLSLRFIEALLKDGDPEAARLMLHALRQIVERVGDPELEEILQEAEELVNSSSS
# B10: il10ra_site1_normal_mot_HHH_b2_05343_000000235_0001_19_35_H_._ems_3hC_444_0001_af2_0001_0000200008_0000002_0 (protein)
# chain: SSDEHQEFFRVVREAIEAASEKDEEEAEELVKEAEKIAEEIGNLVAEAIVKFVKRQVELLRSSSS
# B11: il10ra_site1_normal_mot_HHH_b2_04057_000000065_0001_1_20_H_._HHH_b2_03519_0001_0000200024_0000002_0 (protein)
# chain: SSSSDEEEEEVRELLEEARRIEDPDEVYRLIREAIEIATELGDPEVIRLVLEFSREWIEGSSSSS
# B12: il10ra_site1_normal_mot_HHH_b2_07144_000000289_0001_1_18_H_._HHH_b2_01788_0001_0000100002_0000001_0 (protein)
# chain: SSSSDEESREAYELSREAAELLRKGNPEEARKVLEEAERLAEEANNPAFLFSLEHLLRVLNSSSS
# B13: il10ra_site1_normal_mot_HHH_b1_06789_af2_000000041_0001_1_20_H_._HHH_b2_02576_0001_0000300019_0000001_0 (protein)
# chain: SSSSSSDEEVEELAEEAIEKAPDEAARFLLRQALKALRLAGDPRAERILENLARIILGSSSSSSS
# B14: il10ra_site1_normal_mot_b26a303360aa2756ef5b79665ce52f45_0001_000000179_0001_1_11_H_._HHH_b2_07664_af2_0001_0000100004_0000001_1_af2pred_0001 (protein)
# chain: SSSSSDERKEAVELARRVAELYAEGDEEEAEKVAEEAIEIARELGSRLIVHNLEHLLRRASSSSS
# B15: il10ra_site1_normal_mot_HHH_b2_08186_000000021_0001_43_56_H_._HHH_b1_05595_af2_0001_0000200009_0000001_0 (protein)
# chain: SSSSDLEERIRELEEEIRELEERGDRERVLRLLQEILQLIYKAKDQEALKELWELLQRLRSSSSS
# B16: il10ra_site1_normal_mot_HHH_b1_00566_000000151_0001_22_39_H_._HHH_b1_00313_af2_0001_0000700014_0000001_0 (protein)
# chain: SSSSDEREEIAILVAEAIILAERRGDKEVAEELWQLLVEAYYHGDPELFREVEELAEKFLSSSSS
# B17: il10ra_site1_normal_mot_65b8060e20531850bca9f2e11f97d954_0001_af2_000000137_0001_17_31_H_._HHH_b1_03310_0001_0000100015_0000002_0_af2pred_0001 (protein)
# chain: SSSSDEEIQRVAELYVKAAQLLDEGNPEEAHKLLEEMEELAEEGNNEKLRLTVRFLKALIESSSS
# B18: il10ra_site1_sap_15_mot_HHH_b2_02537_000000065_0001_1_20_H_._HHH_b2_07368_0001_0000300027_0000002_1_0001 (protein)
# chain: SEEEREEIQRLFHELWEAFEKEDEELIKEIIKKIKEFVEEYSEDPAAMILLHVAEAAEKVVRSKS
# B19: il10ra_site1_normal_mot_HHH_b1_06994_000000193_0001_40_55_H_._HHH_b1_08627_0001_0000200009_0000001_0 (protein)
# chain: SSSSDKEERELIRAAIRLAKQVYEAGDDRSARFLLWSAEFLAEELGDEELRREIEELEEEISSSS
# B20: il10ra_site1_sap_19_mot_HHH_b2_02690_000000247_0001_1_16_H_._HHH_b1_06405_0001_0000400019_0000002_0_0001 (protein)
# chain: SSSSDISELAARALRLAFQLSDEETLRKIWELFRRYIEEGDERYREELEELLEELEEKEKRSSSS
# B21: il10ra_site1_normal_mot_be5bd3f495b2ba9d9abb66d04d14a4bf_0001_000000065_0001_37_51_H_._HHH_b1_01400_0001_0000300022_0000002_0_af2pred_0001 (protein)
# chain: SSSSDEELEELVEEVVEKFKLSEEAKRALEYLAEYQLELGASEEEIRRSLEAAARLLELARSSSS
# B22: il10ra_site1_sap_22_mot_HHH_b2_07144_000000289_0001_1_18_H_._HHH_b1_07059_0001_0000400054_0000001_0_0001 (protein)
# chain: SSSSSSDEHARYAAALSRLAFRIRDQEEAHEVLRLAHRVAEEGDPELIEQAEELLKELSSSSSSS
# B23: il10ra_site1_sap_9_mot_HHH_b2_04945_000000076_0001_1_19_H_._HHH_b1_07971_0001_0000200014_0000002_0_0001_af2pred_0001 (protein)
# chain: SSSSSDEEKRAAEILLESAKRIEDPHLREAALRLAAAAARQAGDEELLEEIEELLKRVRSSSSSS
# B24: il10ra_site1_sap_20_mot_HHH_b2_03425_000000200_0001_22_39_H_._HHH_b1_04109_af2_0001_0000500017_0000001_0_0001_af2pred_0001 (protein)
# chain: SSSSSSEAEELYEELEEAVERNDPELVLRLLVLLAQLLRQTGDPRIRELVKEAAKLLAELSSSSS
# B25: il10ra_site1_normal_mot_HHH_b1_08508_000000230_0001_42_56_H_._5ee4a038a4e38403a52b52cc808907e6_0001_1_0001_0000100002_0000001_1 (protein)
# chain: DEEAVEAALEILKRLLPPEEQELLEQIEEVLKRDPEKAEELAEELLERTGNVAVFSLLYIIRRLK
# B26: il10ra_site1_sap_19_mot_HHH_b1_08279_000000069_0001_43_57_H_._HHH_b1_07794_0001_0000200012_0000002_0_0001 (protein)
# chain: SLEEQLEELLRELGVPPERIELLKDAFRRQREQGSPPEDVLRALLYLLHATGDPAREAVEELLER
# B27: il10ra_site1_normal_mot_HHH_b1_04940_000000219_0001_1_18_H_._HHH_b2_03614_0001_0000700045_0000001_0 (protein)
# chain: SSSSSDEEERRYVELALRFARNIPDEESRRFLLRAARQIAELAGDPELEELVREVEEELSSSSSS
# B28: il10ra_site1_sap_24_mot_HHH_b2_02497_000000141_0001_1_20_H_._HHH_b1_04531_0001_0001300093_0000001_0_0001_af2pred_0001 (protein)
# chain: SSSSSNEEIIRWLLRAIKELIERGNEEEARLAIKDAKHAIEFLGDDELERILRELEEELNSSSSS
# B29: il10ra_site1_sap_23_mot_HHH_b1_06174_af2_000000107_0001_40_57_H_._HHH_b2_03963_0001_0000300024_0000001_0_0001 (protein)
# chain: SSSSSDEEYEEEVERLLEEAKRIEDPDEWYRLLKEALELAAELGDEELQKLIMKVNRERISSSSS
# B30: il10ra_site1_normal_mot_HHH_b1_02997_000000220_0001_39_52_H_._HHH_b1_07718_af2_0001_0000100003_0000001_0_af2pred_dldesign_0_af2pred (protein)
# chain: SSSSSNEQTQEVTRLIREAIELRAAGKPEEAKKLLEKALELAKAAKNEIMIRNVEYLLSQLSSSS
# B31: il10ra_site1_sap_24_mot_HHH_b1_01754_af2_000000279_0001_1_18_H_._HHH_b1_03088_af2_0001_0000600018_0000002_0_0001 (protein)
# chain: SSSSDEEVEELLEEAREAAEEGDPERAIRLVLEALRLAIQARDPELLQAVWELVREIAELLSSSS
# B32: il10ra_site1_normal_mot_HHH_b2_03220_af2_000000223_0001_23_40_H_._HHH_b2_01017_0001_0000100015_0000001_0_af2pred_0001 (protein)
# chain: SSSSSSSKANEEILRLIREALEIDDEEEARKVLERAEELAEENNNEELLRIIRLLLKELSSSSSS
# B33: il10ra_site1_sap_18_mot_HHH_b1_06914_000000280_0001_1_18_H_._HHH_b1_03095_af2_0001_0000200010_0000001_0_0001 (protein)
# chain: SSSSSDDEEYERVLELLRRAARIDDEEEVEKLLEEAEELAKELGNRVLLLAIRRFRELLESSSSS
# B34: il10ra_site1_normal_mot_HHH_b1_05329_000000008_0001_43_56_H_._HHH_b1_07352_0001_0000400047_0000001_0 (protein)
# chain: SSSSDEFLRIIIEAFELATRLRDEETSHELWRLAMEYAREGDEKYRERLEELLEELEERLSSSSS
# B35: il10ra_site1_normal_mot_HHH_b1_01821_000000158_0001_23_39_H_._HHH_b1_01350_af2_0001_0000300008_0000001_0 (protein)
# chain: SSSSSSDEEREEAEELLEEAKHVEDPERFIELILEAVRLALRSGDEELLQEIWELFKRKSSSSSS
# B36: il10ra_site1_normal_mot_3de50db98b9681956f4e62bdf409e650_0001_af2_000000052_0001_35_49_H_._HHH_b2_01222_0001_0000100001_0000002_0 (protein)
# chain: SSSSSEEFLEKVLRLLLRAARLLLRGNPEEAEELLEEAERLAKEGNNPQAEEVVRHFKEVQSSSS
# B37: il10ra_site1_sap_23_mot_HHH_b1_02062_000000185_0001_1_20_H_._HHH_b1_00494_0001_0000100012_0000002_0_0001 (protein)
# chain: SSSSDYEEALRWLEESLQLAEELNDPEYIRNAARFLLQLAEQANDERIFEEAERILEEVNSSSSS
# Target: il10ra, Q13651
# Assay: yeast display titration
row,Binder,apparent Kd
1,B1,inactive: no binding seen
2,B2,inactive: no binding seen
3,B3,inactive: no binding seen
4,B4,inactive: no binding seen
5,B5,inactive: no binding seen
6,B6,inactive: no binding seen
7,B7,inactive: no binding seen
8,B8,inactive: no binding seen
9,B9,inactive: no binding seen
10,B10,inactive: no binding seen
11,B11,inactive: no binding seen
12,B12,inactive: no binding seen
13,B13,inactive: no binding seen
14,B14,inactive: no binding seen
15,B15,inactive: no binding seen
16,B16,active: 233 to 399 nM
17,B17,inactive: no binding seen
18,B18,inactive: no binding seen
19,B19,inactive: no binding seen

row,Binder,apparent Kd
1,B20,inactive: no binding seen
2,B21,inactive: no binding seen
3,B22,inactive: no binding seen
4,B23,inactive: no binding seen
5,B24,inactive: no binding seen
6,B25,inactive: no binding seen
7,B26,inactive: no binding seen
8,B27,inactive: no binding seen
9,B28,inactive: no binding seen
10,B29,inactive: no binding seen
11,B30,inactive: no binding seen
12,B31,inactive: no binding seen
13,B32,inactive: no binding seen
14,B33,inactive: no binding seen
15,B34,inactive: no binding seen
16,B35,inactive: no binding seen
17,B36,inactive: no binding seen
18,B37,inactive: no binding seen

# As entered above:
# Entry for B26 under apparent Kd: inactive: no binding seen
# Entry for B36 under apparent Kd: inactive: no binding seen
